Data: article PMC5405935, “Role of Kif15 and its novel mitotic partner KBP in K-fiber dynamics and chromosome alignment” (PLoS ONE, 2017)
These are yes or no findings as the source states them, for the method shown. For some of these results: Binding seen in cells or lysates may run through a third protein. Some results given as binding are weak or reduced against the parent protein; the word gives no strength. For some of these results: Where a sequence is shown, tags or fusion partners need not be part of it.

What was measured:
[1] = molecular target: T1, Flag-tagged Kif15 (full length, residues 1-1388) (human), Q9NS87; test: co-IP; anti-Flag M2 magnetic beads, 30 min at 4°C, lysates of HEK293T cells synchronized in mitosis (thymidine, nocodazole, shake off); stable or transient Flag-Kif15 or Flag-Kif15 truncations, GFP-KBP co-transfected where named; also with or without λ-phosphatase; immunoblot; settings: remark: other sources report otherwise
T1 chain: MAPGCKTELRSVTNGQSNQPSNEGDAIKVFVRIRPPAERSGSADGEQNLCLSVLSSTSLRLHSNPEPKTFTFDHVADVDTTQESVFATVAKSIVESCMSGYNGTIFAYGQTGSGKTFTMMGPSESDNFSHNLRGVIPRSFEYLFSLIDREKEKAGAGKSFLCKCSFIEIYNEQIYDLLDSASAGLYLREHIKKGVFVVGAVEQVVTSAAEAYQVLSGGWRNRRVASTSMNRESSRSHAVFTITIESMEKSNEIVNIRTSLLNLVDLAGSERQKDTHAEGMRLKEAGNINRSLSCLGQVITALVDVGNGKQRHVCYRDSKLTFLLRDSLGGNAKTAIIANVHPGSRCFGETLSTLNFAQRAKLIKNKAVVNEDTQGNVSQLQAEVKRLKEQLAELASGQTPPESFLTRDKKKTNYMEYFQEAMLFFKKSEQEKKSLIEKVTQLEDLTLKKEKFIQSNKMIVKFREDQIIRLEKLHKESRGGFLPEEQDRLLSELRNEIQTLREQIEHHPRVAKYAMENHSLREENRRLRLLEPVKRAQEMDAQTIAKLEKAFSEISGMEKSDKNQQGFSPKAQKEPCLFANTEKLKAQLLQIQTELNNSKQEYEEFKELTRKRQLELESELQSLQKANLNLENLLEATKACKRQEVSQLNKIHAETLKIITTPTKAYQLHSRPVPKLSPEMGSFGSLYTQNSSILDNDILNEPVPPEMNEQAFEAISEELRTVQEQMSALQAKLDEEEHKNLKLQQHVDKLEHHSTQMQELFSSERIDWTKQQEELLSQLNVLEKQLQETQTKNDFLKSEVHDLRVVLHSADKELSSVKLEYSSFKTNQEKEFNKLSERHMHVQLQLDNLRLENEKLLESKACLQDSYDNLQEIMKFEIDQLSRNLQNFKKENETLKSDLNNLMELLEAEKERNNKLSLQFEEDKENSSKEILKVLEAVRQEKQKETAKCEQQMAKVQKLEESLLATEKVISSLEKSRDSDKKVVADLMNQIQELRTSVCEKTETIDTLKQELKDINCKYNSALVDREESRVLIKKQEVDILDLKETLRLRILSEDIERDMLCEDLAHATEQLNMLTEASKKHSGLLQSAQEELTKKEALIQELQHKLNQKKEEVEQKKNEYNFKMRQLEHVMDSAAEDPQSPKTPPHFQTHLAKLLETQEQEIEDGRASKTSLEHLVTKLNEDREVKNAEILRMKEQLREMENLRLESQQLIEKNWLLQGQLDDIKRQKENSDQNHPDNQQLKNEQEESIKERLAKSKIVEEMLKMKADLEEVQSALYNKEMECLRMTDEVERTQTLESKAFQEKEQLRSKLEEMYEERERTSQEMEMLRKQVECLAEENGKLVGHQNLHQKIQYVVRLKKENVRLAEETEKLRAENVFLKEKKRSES

[2] = molecular target: T2, KBP (endogenous) (human (endogenous in HEK293T)), Q96EK5; test: co-IP; anti-KBP antibody on protein-A dynabeads, 2 h at 4°C, lysate of HEK293T cells synchronized in mitosis; endogenous proteins; immunoblot; settings: remark: other sources report otherwise
T2 chain: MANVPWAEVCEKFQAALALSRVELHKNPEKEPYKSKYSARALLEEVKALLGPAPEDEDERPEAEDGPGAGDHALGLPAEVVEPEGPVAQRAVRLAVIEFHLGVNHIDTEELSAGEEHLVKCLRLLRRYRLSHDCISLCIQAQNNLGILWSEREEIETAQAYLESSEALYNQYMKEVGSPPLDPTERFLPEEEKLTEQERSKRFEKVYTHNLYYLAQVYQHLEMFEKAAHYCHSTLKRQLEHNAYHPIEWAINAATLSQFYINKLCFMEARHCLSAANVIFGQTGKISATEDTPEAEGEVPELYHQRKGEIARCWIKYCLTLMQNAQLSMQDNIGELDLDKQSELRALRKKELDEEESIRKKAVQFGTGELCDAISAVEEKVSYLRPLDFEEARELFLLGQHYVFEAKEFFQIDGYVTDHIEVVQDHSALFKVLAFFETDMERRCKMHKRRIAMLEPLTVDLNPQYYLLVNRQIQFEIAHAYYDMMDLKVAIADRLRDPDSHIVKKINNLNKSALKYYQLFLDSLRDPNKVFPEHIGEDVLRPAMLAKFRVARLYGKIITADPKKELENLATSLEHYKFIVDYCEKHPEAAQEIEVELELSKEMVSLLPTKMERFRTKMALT

[3] = molecular target: T3, Flag-tagged Kif15 (full length, residues 1-1388) (human) (UniProt Q9NS87); test: co-IP; anti-Flag immunoprecipitation from lysates of stable Flag-Kif15 HEK293T cells synchronized in interphase; immunoblot with anti-Kif15 and anti-KBP
T3 sequence: T1 chain

[4] = molecular target: KBP-His (full-length His-tagged KBP) (human) (UniProt Q96EK5); test: SEC + other: sucrose gradient centrifugation; 80 μg of each protein alone or both in motor buffer (100mM PIPES, 2mM MgAc2, 1mM EGTA, 1mM DTT), pre-incubated 30 min on ice; Superose 6 column; 6-28% sucrose gradients, 16 h at 4°C; with or without ATP; native molecular weights calculated from Stokes radius and sedimentation coefficient; both purified

B1: KBP (endogenous), Q96EK5 1-621 (protein)
chain: T2 chain
- binding [1]: binds

B2: Kif15 (endogenous), Q9NS87 1-1388 (protein)
chain: T1 chain
- binding [2]: binds

B3: KBP (endogenous) (protein, UniProt Q96EK5 1-621)
chain: T2 chain
- binding [3]: no binding (condition: cells synchronized in interphase)

B4: KBP-His (full-length His-tagged KBP) (natural protein, human, UniProt Q96EK5 1-621, looked up)
chain: T2 chain
notes: also called recombinant His-tagged KBP; source: E. coli BL21 (DE3), purified (Ni-NTA)
- binding [4]: no binding
